Source: paper PMC5717063
These are yes or no findings as the source states them, for the method shown. Binding can be weak; no strength is given. Sequences can lack the tags named with a protein.

What was measured:
[1] = target: HSP60/HSP10 complex (porcine); assay: protease protection (trypsin sensitivity assay); heat-denatured rhodanese with HSP60/HSP10 and ATP; samples at 1 min or 60 min, 10 ug/ml trypsin for 3 min; SDS-PAGE; both purified
[2] = target: HSP60/HSP10 complex (porcine); assay: protease protection (trypsin sensitivity assay); heat-denatured rhodanese with HSP60/HSP10 and ATP-AlFx; samples at 1 min or 60 min, 10 ug/ml trypsin for 3 min; SDS-PAGE; both purified
[3] = target: HSP60/HSP10 complex (porcine); assay: protease protection (trypsin sensitivity assay); heat-denatured rhodanese with HSP60/HSP10 and GTP-AlFx; samples at 1 min or 60 min, 10 ug/ml trypsin for 3 min; SDS-PAGE; both purified

Measured: binding

B1: His-tagged rhodanese (heat-denatured) (enzyme, UniProt P00586 1-297)
chain: MVHQVLYRALVSTKWLAESVRAGKVGPGLRVLDASWYSPGTREARKEYLERHVPGASFFDIEECRDKASPYEVMLPSEAGFADYVGSLGISNDTHVVVYDGDDLGSFYAPRVWWMFRVFGHRTVSVLNGGFRNWLKEGHPVTSEPSRPEPAIFKATLNRSLLKTYEQVLENLESKRFQLVDSRAQGRYLGTQPEPDAVGLDSGHIRGSVNMPFMNFLTEDGFEKSPEELRAMFEAKKVDLTKPLIATCRKGVTACHIALAAYLCGKPDVAIYDGSWFEWFHRAPPETWVSQGKGGKA
binds: [1] | [2] | [3]
